Numbering of substitutions follows the chain as printed. Some of the results follow. For some assays here: At the low end of the ranking the order means little.
Tests used:
Conditions in all cases: yeast three-hybrid, YBZ-1, SC-Leu-His + 0.5 mM 3-AT, 4 days
[1] = target: T1, PUM1 PUF domain R2-SWW N899S + Y900W + Q903W (UniProt Q14671)
T1 sequence: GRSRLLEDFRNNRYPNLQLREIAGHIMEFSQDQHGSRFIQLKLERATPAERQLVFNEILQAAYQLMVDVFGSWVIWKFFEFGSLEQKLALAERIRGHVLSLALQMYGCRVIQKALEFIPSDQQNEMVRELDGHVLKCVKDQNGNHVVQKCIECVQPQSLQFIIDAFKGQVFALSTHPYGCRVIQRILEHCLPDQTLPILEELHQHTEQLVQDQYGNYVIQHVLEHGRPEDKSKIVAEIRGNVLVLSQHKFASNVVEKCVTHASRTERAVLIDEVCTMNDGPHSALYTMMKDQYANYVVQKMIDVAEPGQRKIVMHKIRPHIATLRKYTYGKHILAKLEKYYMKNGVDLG

[2] = target: T2, PUM1 PUF domain R2-TFG N899T + Y900F + Q903G (UniProt Q14671)
T2 sequence: T1 sequence with S72T, W73F, W76G

[3] = target: T3, PUM1 PUF domain R2-VFR N899V + Y900F + Q903R (UniProt Q14671)
T3 sequence: T1 sequence with S72V, W73F, W76R

[4] = target: T4, PUM1 PUF domain R2-VFV N899V + Y900F + Q903V (UniProt Q14671)
T4 sequence: T1 sequence with S72V, W73F, W76V

[5] = target: T5, PUM1 PUF domain R2-VHP N899V + Y900H + Q903P (UniProt Q14671)
T5 sequence: T1 sequence with S72V, W73H, W76P

[6] = target: T6, PUM1 PUF domain R2-VWP N899V + Y900W + Q903P (UniProt Q14671)
T6 sequence: T1 sequence with S72V, W76P

[7] = target: T7, PUM1 PUF domain R2-VWW N899V + Y900W + Q903W (UniProt Q14671)
T7 sequence: T1 sequence with S72V

[8] = target: T8, PUM1 PUF domain R2-VYP N899V + Q903P (UniProt Q14671)
T8 sequence: T1 sequence with S72V, W73Y, W76P

[9] = target: T9, PUM1 PUF domain R3-AAE C935A + R936A + Q939E (Homo sapiens) (UniProt Q14671)
T9 sequence: T1 sequence with S72N, W73Y, W76Q, C108A, R109A, Q112E

[10] = target: T10, PUM1 PUF domain R3-AIE C935A + R936I + Q939E (Homo sapiens) (UniProt Q14671)
T10 sequence: T1 sequence with S72N, W73Y, W76Q, C108A, R109I, Q112E

[11] = target: T11, PUM1 PUF domain R3-AIR C935A + R936I + Q939R (UniProt Q14671)
T11 sequence: T1 sequence with S72N, W73Y, W76Q, C108A, R109I, Q112R

[12] = target: T12, PUM1 PUF domain R3-EWR C935E + R936W + Q939R (Homo sapiens) (UniProt Q14671)
T12 sequence: T1 sequence with S72N, W73Y, W76Q, C108E, R109W, Q112R

[13] = target: T13, PUM1 PUF domain R3-FCM C935F + R936C + Q939M (UniProt Q14671)
T13 sequence: T1 sequence with S72N, W73Y, W76Q, C108F, R109C, Q112M

[14] = target: T14, PUM1 PUF domain R3-FCR C935F + R936C + Q939R (UniProt Q14671)
T14 sequence: T1 sequence with S72N, W73Y, W76Q, C108F, R109C, Q112R

[15] = target: T15, PUM1 PUF domain R3-FRA C935F + Q939A (Homo sapiens) (UniProt Q14671)
T15 sequence: T1 sequence with S72N, W73Y, W76Q, C108F, Q112A

[16] = target: T16, PUM1 PUF domain R3-FRC C935F + Q939C (UniProt Q14671)
T16 sequence: T1 sequence with S72N, W73Y, W76Q, C108F, Q112C

[17] = target: T17, PUM1 PUF domain R3-FRD C935F + Q939D (Homo sapiens) (UniProt Q14671)
T17 sequence: T1 sequence with S72N, W73Y, W76Q, C108F, Q112D

[18] = target: T18, PUM1 PUF domain R3-FRR C935F + Q939R (Homo sapiens) (UniProt Q14671)
T18 sequence: T1 sequence with S72N, W73Y, W76Q, C108F, Q112R

[19] = target: T19, PUM1 PUF domain R3-FRT C935F + Q939T (UniProt Q14671)
T19 sequence: T1 sequence with S72N, W73Y, W76Q, C108F, Q112T

[20] = target: T20, PUM1 PUF domain R2-VFQ R3-THE R4-TFR N899V + Y900F + C935T + R936H + Q939E + N971T + H972F + Q975R (Homo sapiens) (UniProt Q14671)
T20 sequence: T1 sequence with S72V, W73F, W76Q, C108T, R109H, Q112E, N144T, H145F, Q148R

Row | Sequence | binding signal (log2 enrichment (interaction score)) [1] | binding signal (log2 enrichment (interaction score)) [2] | binding signal (log2 enrichment (interaction score)) [3] | binding signal (log2 enrichment (interaction score)) [4] | binding signal (log2 enrichment (interaction score)) [5] | binding signal (log2 enrichment (interaction score)) [6] | binding signal (log2 enrichment (interaction score)) [7] | binding signal (log2 enrichment (interaction score)) [8] | binding signal (log2 enrichment (interaction score)) [9] | binding signal (log2 enrichment (interaction score)) [10] | binding signal (log2 enrichment (interaction score)) [11] | binding signal (log2 enrichment (interaction score)) [12] | binding signal (log2 enrichment (interaction score)) [13] | binding signal (log2 enrichment (interaction score)) [14] | binding signal (log2 enrichment (interaction score)) [15] | binding signal (log2 enrichment (interaction score)) [16] | binding signal (log2 enrichment (interaction score)) [17] | binding signal (log2 enrichment (interaction score)) [18] | binding signal (log2 enrichment (interaction score)) [19] | binding signal (log2 enrichment (interaction score)) [20]
1 | GGCUAGAACUAGUGGAUCCCCCGGCGCCCGGCGGCUCGAGCCCGGGUAAGUGUAAAUAGUCUGCAUGCCGCCGGGCGCCAUGCCUGCAGGUCGACUCUAGAAAACAUG | < -7.37 | < -6.65 | < -7.53 | < -6.55 | < -7.86 | < -9.04 | < -6.77 | < -7.39 | -2.07 | -1.03 | < -6.84 | 0.32 | < -6.81 | -3.22 | -1.54 | -5.35 | -3.6 | -1.57 | -4.12 | –
2 | GGCUAGAACUAGUGGAUCCCCCGGCGCCCGGCGGCUCGAGCCCGGGUAAGGUUACGUAGUCUGCAUGCCGCCGGGCGCCAUGCCUGCAGGUCGACUCUAGAAAACAUG | – | – | – | – | – | – | – | – | – | – | – | – | – | – | – | – | – | – | – | 9.27
